Among the data in paper PMC8424379 (2021) are binding values, retold here.

Substitutions are numbered along the chain they refer to. Numbers in names are those of the source. These are yes or no findings as the source states them, for the method shown. For some assays here: Binding seen in cells or lysates may run through a third protein. Some entries that bind do so weakly or less than the wild type. Where a sequence is shown, tags or fusion partners need not be part of it.

Assay [1] concerns the target T1, Flag-tagged wild-type Ccq1 (S. pombe) (UniProt Q10432).
T1 sequence: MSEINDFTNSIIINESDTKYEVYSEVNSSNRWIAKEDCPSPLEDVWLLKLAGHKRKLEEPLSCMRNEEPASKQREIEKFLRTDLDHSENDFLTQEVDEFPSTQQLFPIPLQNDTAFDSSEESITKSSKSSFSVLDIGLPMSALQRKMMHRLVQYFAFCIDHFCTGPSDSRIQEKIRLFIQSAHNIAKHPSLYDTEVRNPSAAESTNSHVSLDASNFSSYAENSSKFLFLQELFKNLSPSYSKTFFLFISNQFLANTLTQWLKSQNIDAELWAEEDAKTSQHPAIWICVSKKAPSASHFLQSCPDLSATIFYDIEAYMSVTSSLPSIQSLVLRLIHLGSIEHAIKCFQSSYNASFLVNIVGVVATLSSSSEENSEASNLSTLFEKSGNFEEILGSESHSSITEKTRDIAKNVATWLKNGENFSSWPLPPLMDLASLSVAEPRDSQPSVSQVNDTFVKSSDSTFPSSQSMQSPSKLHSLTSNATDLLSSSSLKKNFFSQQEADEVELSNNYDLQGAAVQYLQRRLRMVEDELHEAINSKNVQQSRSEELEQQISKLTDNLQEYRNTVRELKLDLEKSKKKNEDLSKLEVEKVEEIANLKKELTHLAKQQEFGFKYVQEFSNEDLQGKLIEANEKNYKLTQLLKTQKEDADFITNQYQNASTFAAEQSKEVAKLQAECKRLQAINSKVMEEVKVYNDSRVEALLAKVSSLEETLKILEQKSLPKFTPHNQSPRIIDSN
The assay is described as follows: co-IP; S. pombe whole-cell extracts (50 mM Hepes pH 7.5, 150 mM NaCl, 1 mM EDTA, 1% Triton-X100); Flag-tagged Ccq1 precipitated with anti-FLAG M2 Affinity Gel, 4°C, 4 h; Myc-tagged Raf2 detected by immunoblot. A general note: Immunoblotting shows a protein as a band on a membrane.

The target in assay [2] is T2, Raf2 fused to Gal4 DNA-binding domain (S. pombe) (UniProt O74560).
T2 sequence: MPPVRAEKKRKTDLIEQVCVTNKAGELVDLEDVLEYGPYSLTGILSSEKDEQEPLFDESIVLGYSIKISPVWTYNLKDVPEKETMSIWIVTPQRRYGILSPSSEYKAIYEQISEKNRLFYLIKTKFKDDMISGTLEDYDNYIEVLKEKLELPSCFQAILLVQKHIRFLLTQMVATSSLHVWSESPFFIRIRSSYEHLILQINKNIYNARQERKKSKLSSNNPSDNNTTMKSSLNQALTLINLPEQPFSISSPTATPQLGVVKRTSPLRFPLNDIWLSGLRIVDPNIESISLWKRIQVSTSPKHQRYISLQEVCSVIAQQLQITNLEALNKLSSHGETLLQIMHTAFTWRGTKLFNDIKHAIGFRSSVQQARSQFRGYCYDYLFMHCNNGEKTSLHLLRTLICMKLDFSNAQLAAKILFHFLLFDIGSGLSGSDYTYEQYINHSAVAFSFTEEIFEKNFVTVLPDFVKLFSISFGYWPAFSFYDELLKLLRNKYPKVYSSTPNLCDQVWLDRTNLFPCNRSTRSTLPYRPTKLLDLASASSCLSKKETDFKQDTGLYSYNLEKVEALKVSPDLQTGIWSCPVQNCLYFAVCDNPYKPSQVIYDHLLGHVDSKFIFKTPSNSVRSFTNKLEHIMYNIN
The assay is described as follows: two-hybrid; L40 strain with pBTM116 and pACT2 fusion plasmids; Raf2, Tpz1 or Clr3 on the Gal4 DNA-binding domain, WT and mutant Ccq1 on the Gal4 activation domain; liquid β-galactosidase assay.

Assay [3] deals with T3, Clr3 fused to the Gal4 DNA binding domain (S. pombe) (UniProt P56523).
T3 sequence: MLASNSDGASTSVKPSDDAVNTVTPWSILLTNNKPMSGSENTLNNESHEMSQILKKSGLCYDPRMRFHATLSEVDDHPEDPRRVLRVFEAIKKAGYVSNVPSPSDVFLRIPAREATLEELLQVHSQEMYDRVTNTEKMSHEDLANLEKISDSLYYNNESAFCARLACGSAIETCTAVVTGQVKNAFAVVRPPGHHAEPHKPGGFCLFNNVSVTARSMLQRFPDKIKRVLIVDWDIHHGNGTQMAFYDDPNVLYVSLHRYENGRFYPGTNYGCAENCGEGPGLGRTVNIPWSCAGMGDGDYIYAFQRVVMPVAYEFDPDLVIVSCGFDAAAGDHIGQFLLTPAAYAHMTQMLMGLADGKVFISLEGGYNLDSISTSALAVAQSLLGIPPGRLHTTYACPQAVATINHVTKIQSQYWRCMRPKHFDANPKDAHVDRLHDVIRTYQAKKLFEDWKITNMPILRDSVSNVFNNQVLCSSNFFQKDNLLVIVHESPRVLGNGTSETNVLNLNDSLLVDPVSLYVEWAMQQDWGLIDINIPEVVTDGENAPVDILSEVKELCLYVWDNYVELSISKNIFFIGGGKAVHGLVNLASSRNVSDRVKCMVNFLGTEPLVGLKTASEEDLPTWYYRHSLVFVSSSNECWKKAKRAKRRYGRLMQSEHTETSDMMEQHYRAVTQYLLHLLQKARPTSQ
Described as above.

B1: Myc-tagged Raf2 (protein, UniProt O74560 1-636)
chain: T2 sequence
For the molecule B1, the binding result in assay [1] is on record as “binds”.

B2: full-length Ccq1 fused to Gal4 activation domain (protein, UniProt Q10432 1-735)
chain: T1 sequence
With B2, the binding entry in assay [2] and in assay [3] was “binds” throughout.

B3: full-length Ccq1 L519R fused to Gal4 activation domain (protein, UniProt Q10432 1-735)
chain: T1 sequence with L519R
As for B3, in assay [3], the binding result is “binds”.

B4: full-length Ccq1 V516R fused to Gal4 activation domain (protein, UniProt Q10432 1-735)
chain: T1 sequence with V516R
As to B4, the binding result in assay [3] is “binds”.

B5: full-length Ccq1 L511R fused to Gal4 activation domain (protein, UniProt Q10432 1-735)
chain: T1 sequence with L511R
On to B5, for which, in assay [3], the binding entry was “binds”.

B6: full-length Ccq1 Y518R fused to Gal4 activation domain (protein, UniProt Q10432 1-735)
chain: T1 sequence with Y518R
As for B6, in assay [3], the binding entry is “binds”.

B7: Ccq1_(496–583), Raf2-binding motif of Ccq1, fused to Gal4 activation domain (domain or fragment, UniProt Q10432 496-583)
chain: SQQEADEVELSNNYDLQGAAVQYLQRRLRMVEDELHEAINSKNVQQSRSEELEQQISKLTDNLQEYRNTVRELKLDLEKSKKKNEDLS
B7: the binding entry in assay [2] was “binds”.
